Measurements reported in the supplement of paper PMC8728848.
Some of the results follow.

How the values were obtained:
Assay in all cases: glycan array binding signal (z-score within array); higher = stronger binding
Conditions in all cases: glycan notation: IUPAC condensed, linker removed
Fuc(a1-2)Gal = target: Fuc(a1-2)Gal
Outline: (§1)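 Columns mapping to the same glycan were averaged after glycan names were converted to IUPAC-condensed notation. The data come from 3228 arrays in the Consortium for Functional Glycomics database, limited to those with an available protein sequence. Binding is reported as a within-array Z-score averaged across arrays of one protein sequence and across linkers.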

Fuc(a1-2)Gal(b1-3)GalNAc = target: Fuc(a1-2)Gal(b1-3)GalNAc
Outline: as §1

[1] = target: Fuc(a1-2)Gal(b1-3)GalNAc(a1-3)[Fuc(a1-2)]Gal(b1-4)Glc
Outline: as §1

[2] = target: Fuc(a1-2)Gal(b1-3)GalNAc(a1-3)[Fuc(a1-2)]Gal(b1-4)GlcNAc
Outline: as §1

[3] = target: Fuc(a1-2)Gal(b1-3)GalNAc(b1-3)Gal
Outline: as §1

[4] = target: Fuc(a1-2)Gal(b1-3)GalNAc(b1-3)Gal(a1-4)Gal(b1-4)Glc
Outline: as §1

[5] = target: Fuc(a1-2)Gal(b1-3)GalNAc(b1-4)[Neu5Ac(a2-3)]Gal(b1-4)Glc
Outline: as §1

Fuc(a1-2)Gal(b1-3)GlcNAc = target: Fuc(a1-2)Gal(b1-3)GlcNAc
Outline: as §1

[6] = target: Fuc(a1-2)Gal(b1-3)GlcNAc(b1-2)Man(a1-3)[Fuc(a1-2)Gal(b1-3)GlcNAc(b1-2)Man(a1-6)]Man(b1-4)GlcNAc(b1-4)GlcNAc
Outline: as §1

[7] = target: Fuc(a1-2)Gal(b1-3)GlcNAc(b1-2)Man(a1-3)[Fuc(a1-2)Gal(b1-3)GlcNAc(b1-2)Man(a1-6)]Man(b1-4)GlcNAc(b1-4)[Fuc(a1-6)]GlcNAc
Outline: as §1

[8] = target: Fuc(a1-2)Gal(b1-3)GlcNAc(b1-3)Gal(b1-4)Glc
Outline: as §1

[9] = target: Fuc(a1-2)Gal(b1-3)GlcNAc(b1-3)GalNAc
Outline: as §1

[10] = target: Fuc(a1-2)Gal(b1-3)GlcNAc(b1-3)[Fuc(a1-2)Gal(b1-3)GlcNAc(b1-6)]GalNAc
Outline: as §1

[11] = target: Fuc(a1-2)Gal(b1-3)GlcNAc(b1-3)[Gal(b1-4)GlcNAc(b1-6)]Gal(b1-4)Glc
Outline: as §1

[12] = target: Fuc(a1-2)Gal(b1-3)GlcNAc(b1-3)[Neu5Ac(a2-6)Gal(b1-4)GlcNAc(b1-6)]Gal(b1-4)Glc
Outline: as §1

[13] = target: Fuc(a1-2)Gal(b1-3)GlcNAc6S
Outline: as §1

[14] = target: Fuc(a1-2)Gal(b1-3)[Fuc(a1-4)]GlcNAc
Outline: as §1

[15] = target: Fuc(a1-2)Gal(b1-3)[Fuc(a1-4)]GlcNAc(b1-2)Man(a1-3)[Fuc(a1-2)Gal(b1-3)[Fuc(a1-4)]GlcNAc(b1-2)Man(a1-3)]Man(b1-4)GlcNAc(b1-4)GlcNAc
Outline: as §1

[16] = target: Fuc(a1-2)Gal(b1-3)[Fuc(a1-4)]GlcNAc(b1-2)Man(a1-3)[Fuc(a1-2)Gal(b1-3)[Fuc(a1-4)]GlcNAc(b1-2)Man(a1-6)]Man(b1-4)GlcNAc(b1-4)[Fuc(a1-6)]GlcNAc(b1-4)[Fuc(a1-6)]GlcNAc
Outline: as §1

[17] = target: Fuc(a1-2)Gal(b1-3)[Fuc(a1-4)]GlcNAc(b1-3)[Fuc(a1-3)[Gal(b1-4)]GlcNAc(b1-6)]Gal(b1-4)Glc
Outline: as §1

[18] = target: Fuc(a1-2)Gal(b1-3)[Fuc(a1-4)]GlcNAc(b1-3)[Gal(b1-4)GlcNAc(b1-6)]Gal(b1-4)Glc
Outline: as §1

[19] = target: Fuc(a1-2)Gal(b1-4)Fuc(a1-3)]GlcNAc(b1-2)Man(a1-3)[Fuc(a1-2)Gal(b1-4)[Fuc(a1-3)]GlcNAc(b1-2)Man(a1-6)]Man(b1-4)GlcNAc(b1-4)GlcNAc
Outline: as §1

Fuc(a1-2)Gal(b1-4)Glc = target: Fuc(a1-2)Gal(b1-4)Glc
Outline: as §1

Fuc(a1-2)Gal(b1-4)Glc6S = target: Fuc(a1-2)Gal(b1-4)Glc6S
Outline: as §1

Fuc(a1-2)Gal(b1-4)GlcNAc = target: Fuc(a1-2)Gal(b1-4)GlcNAc
Outline: as §1

[20] = target: Fuc(a1-2)Gal(b1-4)GlcNAc(b1-2)Man
Outline: as §1

[21] = target: Fuc(a1-2)Gal(b1-4)GlcNAc(b1-2)Man(a1-3)[Fuc(a1-2)Gal(b1-4)GlcNAc(b1-2)Man(a1-6)]Man(b1-4)GlcNAc(b1-4)GlcNAc
Outline: as §1

[22] = target: Fuc(a1-2)Gal(b1-4)GlcNAc(b1-2)Man(a1-3)[Fuc(a1-2)Gal(b1-4)GlcNAc(b1-2)Man(a1-6)]Man(b1-4)GlcNAc(b1-4)[Fuc(a1-6)]GlcNAc
Outline: as §1

[23] = target: Fuc(a1-2)Gal(b1-4)GlcNAc(b1-2)[Fuc(a1-2)Gal(b1-4)GlcNAc(b1-4)]Man(a1-3)[Fuc(a1-2)Gal(b1-4)GlcNAc(b1-2)Man(a1-6)]Man(b1-4)GlcNAc(b1-4)GlcNAc
Outline: as §1

[24] = target: Fuc(a1-2)Gal(b1-4)GlcNAc(b1-3)Gal(b1-4)GlcNAc
Outline: as §1

[25] = target: Fuc(a1-2)Gal(b1-4)GlcNAc(b1-3)Gal(b1-4)GlcNAc(b1-2)Man(a1-3)[Fuc(a1-2)Gal(b1-4)GlcNAc(b1-3)Gal(b1-4)GlcNAc(b1-2)Man(a1-6)]Man(b1-4)GlcNAc(b1-4)GlcNAc
Outline: as §1

[26] = target: Fuc(a1-2)Gal(b1-4)GlcNAc(b1-3)Gal(b1-4)GlcNAc(b1-3)Gal(b1-4)GlcNAc
Outline: as §1

[27] = target: Fuc(a1-2)Gal(b1-4)GlcNAc(b1-3)GalNAc
Outline: as §1

[28] = target: Fuc(a1-2)Gal(b1-4)GlcNAc(b1-3)[Fuc(a1-2)Gal(b1-4)GlcNAc(b1-6)]GalNAc
Outline: as §1

[29] = target: Fuc(a1-2)Gal(b1-4)GlcNAc(b1-3)[Fuc(a1-3)[Gal(b1-4)]GlcNAc(b1-6)]Gal(b1-4)Glc
Outline: as §1

[30] = target: Fuc(a1-2)Gal(b1-4)GlcNAc(b1-6)GalNAc
Outline: as §1

[31] = target: Fuc(a1-2)Gal(b1-4)GlcNAc6S
Outline: as §1

B1: AT3G44510(29) (Arabidopsis thaliana), F4J341 (protein)
chain: MEEHLQGRIKLHDGRYLAYKERGVPKDDAKFTIVLVHGFGSSKDMNFNVSQELVNEIGIYFVLYDRAGYGESDPNPKRSLKSEAYDVQELADGLEIGSRFYLIGISMGSYTVWSCLKHIPQRLAGVAMVAPVVNFRWPSIPKSLMPKDYRREVAKWSVWIANYFPGLLQWLVTQNMFSTTSMLEKNPVYFNDQDIEVLKHIKGFPMLTKEKLRERGVFGTLRSDFLVAFGDWDFDPADLPDPSLSGPEKGSSSVHIWQGYEDKVMPFQLQRCLCRKLPWIRYHEVPKGGHLIVHYDGICDAILKSLLLGEDLPMYKPKAVITEPA
glycan array binding signal (z-score) (Fuc(a1-2)Gal): 0.376
glycan array binding signal (z-score) (Fuc(a1-2)Gal(b1-3)GalNAc): -0.306
glycan array binding signal (z-score) [1]: 1.73
glycan array binding signal (z-score) [2]: -0.505
glycan array binding signal (z-score) [3]: -0.126
glycan array binding signal (z-score) [4]: 1.31
glycan array binding signal (z-score) [5]: -0.119
glycan array binding signal (z-score) (Fuc(a1-2)Gal(b1-3)GlcNAc): 0.123
glycan array binding signal (z-score) [6]: 0.552
glycan array binding signal (z-score) [7]: -0.086
glycan array binding signal (z-score) [8]: 0.022
glycan array binding signal (z-score) [9]: -0.374
glycan array binding signal (z-score) [10]: -0.277
glycan array binding signal (z-score) [11]: 0.542
glycan array binding signal (z-score) [12]: -0.373
glycan array binding signal (z-score) [13]: -0.678
glycan array binding signal (z-score) [14]: 0.062
glycan array binding signal (z-score) [15]: 0.773
glycan array binding signal (z-score) [16]: -0.074
glycan array binding signal (z-score) [17]: -0.313
glycan array binding signal (z-score) [18]: 0.203
glycan array binding signal (z-score) [19]: 0.139
glycan array binding signal (z-score) (Fuc(a1-2)Gal(b1-4)Glc): -0.012
glycan array binding signal (z-score) (Fuc(a1-2)Gal(b1-4)Glc6S): -1.09
glycan array binding signal (z-score) (Fuc(a1-2)Gal(b1-4)GlcNAc): 0.25
glycan array binding signal (z-score) [20]: -0.589
glycan array binding signal (z-score) [21]: 0.977
glycan array binding signal (z-score) [22]: -0.771
glycan array binding signal (z-score) [23]: -0.856
glycan array binding signal (z-score) [24]: 0.345
glycan array binding signal (z-score) [25]: -0.325
glycan array binding signal (z-score) [26]: -0.12
glycan array binding signal (z-score) [27]: -0.838
glycan array binding signal (z-score) [28]: 0.16
glycan array binding signal (z-score) [29]: -0.485
glycan array binding signal (z-score) [30]: -0.731
glycan array binding signal (z-score) [31]: -0.584
